Values from PubChem BioAssay AID1224827 (NIAID, 2016).
This is one part, drawn at random, of about 3,800 reagents tested. In the full data, about 2,200 (57%) got an active call. 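Active means a strong reporter change in either direction; calls are per siRNA, not per gene; qiagen siRNAs gave weaker effects.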 Entries without a mark were called inactive. Reagents against one gene are numbered here. Not all columns of the deposit are shown.

Screen: 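Identify regulators of the macrophage TNF-alpha response to bacterial LPS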 (follow-up of hits)
Cell system: RAW264.7 G9 mouse macrophage reporter clone
Knock-down reagent: single siRNA against mouse genes, 100 nM siRNA
Time to read-out: siRNA for 2 days, then LPS about 16 h
Treatment: bacterial lipopolysaccharide (LPS), 10 ng/ml, cells fixed after overnight (about 16 h) stimulation
Detection: 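Imaged nuclear TNF reporter intensity, background removed, scaled per plate and to non-targeting control wells, as z-scores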
Scale: TNF reporter z-score, mean: higher = stronger Tnf promoter reporter signal; gene median z, three same-vendor siRNAs: higher = stronger Tnf reporter signal for the gene
Rule for the call: 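An siRNA is called active when its mean z-score over replicates is at least +2 or at most -2; control wells get no call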

Knock-down of Tcf20 #1 gave: TNF reporter z-score, mean 0.151; gene median z, three same-vendor siRNAs -3.21.
With knock-down of Tcf20 #2 the results were TNF reporter z-score, mean -3.38 (active); gene median z, three same-vendor siRNAs -3.21.
With knock-down of Tcf20 #3, the record shows TNF reporter z-score, mean -4.3 (active); gene median z, three same-vendor siRNAs -3.21.
Knock-down of Tcf20 #4 gave: TNF reporter z-score, mean 1.85; gene median z, three same-vendor siRNAs 0.129.
After knock-down of Tcf20 #5 the results were TNF reporter z-score, mean 0.968; gene median z, three same-vendor siRNAs 0.129.
Knock-down of Tcf20 #6 resulted in: TNF reporter z-score, mean -0.323; gene median z, three same-vendor siRNAs 0.129.
Against Ptges #1 the deposit lists TNF reporter z-score, mean -1.76; gene median z, three same-vendor siRNAs -2.81.
Silencing of Ptges #2 gave: TNF reporter z-score, mean -2.97 (active); gene median z, three same-vendor siRNAs -2.81.
For Ptges #3, the values are TNF reporter z-score, mean -4.42 (active); gene median z, three same-vendor siRNAs -2.81.
Against Ptges #4, the values are TNF reporter z-score, mean 0.902; gene median z, three same-vendor siRNAs -0.119.
After knock-down of Ptges #5, the screen gave TNF reporter z-score, mean 0.846; gene median z, three same-vendor siRNAs -0.119.
Silencing of Ptges #6 gave: TNF reporter z-score, mean -1.67; gene median z, three same-vendor siRNAs -0.119.
With knock-down of Serpinb6c #1, the record shows TNF reporter z-score, mean 0.67; gene median z, three same-vendor siRNAs -1.37.
Serpinb6c #2 showed TNF reporter z-score, mean -1.37; gene median z, three same-vendor siRNAs -1.37.
After knock-down of Serpinb6c #3, the screen gave TNF reporter z-score, mean -5.73 (active); gene median z, three same-vendor siRNAs -1.37.
For Serpinb6c #4, the entry reads TNF reporter z-score, mean 2.07 (active); gene median z, three same-vendor siRNAs 0.248.
After knock-down of Serpinb6c #5, the screen gave TNF reporter z-score, mean 0.893; gene median z, three same-vendor siRNAs 0.248.
With knock-down of Serpinb6c #6 the results were TNF reporter z-score, mean -3.68 (active); gene median z, three same-vendor siRNAs 0.248.

Taken from above:
Tcf20 #1, gene median z, three same-vendor siRNAs → -3.21
Tcf20 #4, gene median z, three same-vendor siRNAs: 0.129

Further entries follow:
Il22b #1 gave TNF reporter z-score, mean 10.3 (active); gene median z, three same-vendor siRNAs -4.6.
Knock-down of Il22b #2 resulted in: TNF reporter z-score, mean -4.6 (active); gene median z, three same-vendor siRNAs -4.6.
Silencing of Il22b #3 came out at: TNF reporter z-score, mean -6.45 (active); gene median z, three same-vendor siRNAs -4.6.
Il22b #4 gave TNF reporter z-score, mean 2.7 (active); gene median z, three same-vendor siRNAs 1.58.
Il22b #5 scored TNF reporter z-score, mean 1.58; gene median z, three same-vendor siRNAs 1.58.
Il22b #6 gave TNF reporter z-score, mean 1.37; gene median z, three same-vendor siRNAs 1.58.
Depletion of Slc25a4 #1 gave: TNF reporter z-score, mean 4.94 (active); gene median z, three same-vendor siRNAs 1.28.
With knock-down of Slc25a4 #2, the screen gave TNF reporter z-score, mean 2.16 (active); gene median z, three same-vendor siRNAs 1.28.
After knock-down of Slc25a4 #3, the record shows TNF reporter z-score, mean 0.00733; gene median z, three same-vendor siRNAs 1.28.
With knock-down of Lyn #1 the results were TNF reporter z-score, mean 0.608; gene median z, three same-vendor siRNAs -1.52.
With knock-down of Lyn #2, the record shows TNF reporter z-score, mean -1.41; gene median z, three same-vendor siRNAs -1.52.
Lyn #3 gave TNF reporter z-score, mean -3.57 (active); gene median z, three same-vendor siRNAs -1.52.
Depletion of Lyn #4 resulted in: TNF reporter z-score, mean 1.72; gene median z, three same-vendor siRNAs 1.04.
Knock-down of Lyn #5 gave: TNF reporter z-score, mean 1.13; gene median z, three same-vendor siRNAs 1.04.
Against Lyn #6, the entry reads TNF reporter z-score, mean -0.939; gene median z, three same-vendor siRNAs 1.04.
